Measurements reported in PubChem BioAssay AID1224826 (NIAID, 2016).
Screen: 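Genes that change LPS-induced Tnf promoter activity in mouse macrophages when knocked down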 (primary screen). Cells: RAW264.7 G9 macrophages from mouse bearing reporters for p65 (GFP) and the Tnf promoter (mCherry). Reagents: siRNA pool against mouse genes, 100 nM. Time to read-out: 16 h of LPS stimulation, after 2 days of siRNA transfection. Challenge: bacterial lipopolysaccharide (Salmonella minnesota R595), 10 ng/ml. Measurement: 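Nuclear mCherry signal of the Tnf promoter reporter measured by imaging after background removal, scaled to each plate median and turned into robust z-scores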. Scale: Tnf reporter robust z-score: higher = stronger Tnf promoter reporter signal after LPS. Active means: 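a well counts as active at a score of -1.3 or below (Tlr4 knock-down control median) or above 3 (raised signal); controls and wells holding fewer than 50 cells are excluded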. Calls: active = Tnf reporter clearly lowered or raised; inactive = no clear change in Tnf reporter.
The deposit covers about 17,000 reagents; this is an unselected part. About 1,110 of all reagents (6.6%) count as active. 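Active means lowered or raised reporter signal; replicate intensities are raw and not normalised per plate.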 Not all columns of the deposit are shown. Reagent sequences are not shown.

Target gene	PubChem SID	Tnf reporter robust z-score	fewer than 50 cells in well	outcome
Nod2 (nucleotide-binding oligomerization domain containing 2)	SID315479925	0.98	enough cells in well	inactive
Ppp1r12b (protein phosphatase 1, regulatory subunit 12B)	SID315481516	0.8	enough cells in well	inactive
Trpc2	SID315469836	-0.11	enough cells in well	inactive
Sprr2j-ps (small proline-rich protein 2J, pseudogene)	SID315469449	1.47	enough cells in well	inactive
Smndc1 (survival motor neuron domain containing 1)	SID315475322		fewer than 50 cells per well; well left out of calls	inactive
Slc10a4	SID315478881	-0.73	enough cells in well	inactive
Dusp1 (dual specificity phosphatase 1)	SID315468799	-1.31	enough cells in well	active
Trpm1	SID315467938	0.12	enough cells in well	inactive
Rgs1 (regulator of G-protein signaling 1)	SID315470840	-0.93	enough cells in well	inactive
9130019P16Rik (RIKEN cDNA 9130019P16 gene)	SID315481745	-0.67	enough cells in well	inactive
Nat8f2 (N-acetyltransferase 8 (GCN5-related) family member 2)	SID315475913	0.87	enough cells in well	inactive
Slc31a1	SID315469303		fewer than 50 cells per well; well left out of calls	inactive
Clec4d (C-type lectin domain family 4, member d)	SID315467971	-0.67	enough cells in well	inactive
Cyp3a16 (cytochrome P450, family 3, subfamily a, polypeptide 16)	SID315466243	0.66	enough cells in well	inactive
Bmp2k (BMP2 inducible kinase)	SID315477148	0.03	enough cells in well	inactive
Pank4 (pantothenate kinase 4)	SID315480870	1.56	enough cells in well	inactive
Dact2 (dishevelled-binding antagonist of beta-catenin 2)	SID315479473	-0.47	enough cells in well	inactive
Aldh9a1 (aldehyde dehydrogenase 9, subfamily A1)	SID315471672	0.24	enough cells in well	inactive
Ear4 (eosinophil-associated, ribonuclease A family, member 4)	SID315471120		fewer than 50 cells per well; well left out of calls	inactive
Or52b1 (olfactory receptor family 52 subfamily B member 1)	SID315471705	1.38	enough cells in well	inactive
Cat (catalase)	SID315465764	2.47	enough cells in well	inactive
A430090L17Rik (RIKEN cDNA A430090L17 gene)	SID315481170	-0.02	enough cells in well	inactive
Snrpb2 (U2 small nuclear ribonucleoprotein B)	SID315469365	-0.24	enough cells in well	inactive
Atp6v1g3 (ATPase, H+ transporting, lysosomal V1 subunit G3)	SID315481683	-0.18	enough cells in well	inactive
Osbp2 (oxysterol binding protein 2)	SID315474934	1.54	enough cells in well	inactive
Ap3d1 (adaptor-related protein complex 3, delta 1 subunit)	SID315465442	-1.01	enough cells in well	inactive
Ncbp2 (nuclear cap binding protein subunit 2)	SID315473407	1.08	enough cells in well	inactive
Rbm42 (RNA binding motif protein 42)	SID315473377		fewer than 50 cells per well; well left out of calls	inactive
Nfe2l2 (nuclear factor, erythroid derived 2, like 2)	SID315468147	-0.01	enough cells in well	inactive
Gng11 (guanine nucleotide binding protein (G protein), gamma 11)	SID315472190	-0.11	enough cells in well	inactive
Yipf6 (Yip1 domain family, member 6)	SID315475526	-0.49	enough cells in well	inactive
Dsc1 (desmocollin 1)	SID315466388	-0.52	enough cells in well	inactive
Nlrp4a (NLR family, pyrin domain containing 4A)	SID315479715	0.5	enough cells in well	inactive
Rras (RAS oncogene related)	SID315469054	0.08	enough cells in well	inactive
Gan (giant axonal neuropathy)	SID315477586	-0.18	enough cells in well	inactive
Or52ab4 (olfactory receptor family 52 subfamily AB member 4)	SID315480376	1.16	enough cells in well	inactive
Exoc5 (exocyst complex component 5)	SID315476494	-0.48	enough cells in well	inactive
Grm4 (glutamate receptor, metabotropic 4)	SID315480815	-0.12	enough cells in well	inactive
Arnt2 (aryl hydrocarbon receptor nuclear translocator 2)	SID315465511	-1.03	enough cells in well	inactive
Pex26 (peroxisomal biogenesis factor 26)	SID315474826		fewer than 50 cells per well; well left out of calls	inactive
Vps50 (VPS50 EARP/GARPII complex subunit)	SID315474702	1.4	enough cells in well	inactive
Gbp5 (guanylate binding protein 5)	SID315478748	-1.01	enough cells in well	inactive
Glod4 (glyoxalase domain containing 4)	SID315472896	-0.25	enough cells in well	inactive
Lap3 (leucine aminopeptidase 3)	SID315472758	-0.13	enough cells in well	inactive
Bicd2 (BICD cargo adaptor 2)	SID315475404	0.87	enough cells in well	inactive
Zfp12 (zinc finger protein 12)	SID315478939	0.71	enough cells in well	inactive
H2ac25 (H2A clustered histone 25)	SID315481038	-1.7	enough cells in well	active
Eef2 (eukaryotic translation elongation factor 2)	SID315466445	-0.94	enough cells in well	inactive
Syngr2 (synaptogyrin 2)	SID315469554	1.12	enough cells in well	inactive
Mogs (mannosyl-oligosaccharide glucosidase)	SID315471776	-0.21	enough cells in well	inactive
Tagln2 (transgelin 2)	SID315469575	-0.17	enough cells in well	inactive
Btbd7 (BTB domain containing 7)	SID315479398	-0.56	enough cells in well	inactive
Ing4 (inhibitor of growth family, member 4)	SID315470659	-0.21	enough cells in well	inactive
Ormdl2 (ORM1-like 2 (S. cerevisiae))	SID315472668	1.3	enough cells in well	inactive
Fam204a (family with sequence similarity 204, member A)	SID315475337	2.17	enough cells in well	inactive
Apoc4 (apolipoprotein C-IV)	SID315465247	-0.72	enough cells in well	inactive
Fam167b (family with sequence similarity 167, member B)	SID315478820	-1.09	enough cells in well	inactive
Pygb (brain glycogen phosphorylase)	SID315476869	0.92	enough cells in well	inactive
Aplf (aprataxin and PNKP like factor)	SID315474455		fewer than 50 cells per well; well left out of calls	inactive
Fbxw26 (F-box and WD-40 domain protein 26)	SID315481823	0.51	enough cells in well	inactive
Ube2v1 (ubiquitin-conjugating enzyme E2 variant 1)	SID315472522	0.78	enough cells in well	inactive
Rpl27a (ribosomal protein L27A)	SID315470424	0.53	enough cells in well	inactive
Nop16 (NOP16 nucleolar protein)	SID315470682	-0.3	enough cells in well	inactive
Rad21 (RAD21 cohesin complex component)	SID315468871	-0.46	enough cells in well	inactive
Tmem147 (transmembrane protein 147)	SID315473904	-1.1	enough cells in well	inactive
Ncln (nicalin)	SID315476371		fewer than 50 cells per well; well left out of calls	inactive
Ccdc9 (coiled-coil domain containing 9)	SID315479710	-0.82	enough cells in well	inactive
Mia2 (MIA SH3 domain ER export factor 2)	SID315478133	-0.29	enough cells in well	inactive
Mia2 (MIA SH3 domain ER export factor 2)	SID315481662	0.89	enough cells in well	inactive
Plac9 (placenta specific 9)	SID315477696	-0.59	enough cells in well	inactive
Synpo2l (synaptopodin 2-like)	SID315473627	1.99	enough cells in well	inactive
Cyp4f18 (cytochrome P450, family 4, subfamily f, polypeptide 18)	SID315474436	0.72	enough cells in well	inactive
Rnase9 (ribonuclease, RNase A family, 9 (non-active))	SID315481480	-0.65	enough cells in well	inactive
Or4k35 (olfactory receptor family 4 subfamily K member 35)	SID315480076	0.02	enough cells in well	inactive
Alg6 (ALG6 alpha-1,3-glucosyltransferase)	SID315481312	-0.96	enough cells in well	inactive
